In patent US4728638A, “Somatostatine derivatives” (Sandoz Ltd., priority 1985, dated 1988):
At least one peptide structure holds a part that was inferred or is arguable (an end, a ring closure or a residue). Non-standard residues stand in square brackets, D forms with d. Residues, ends and D or L forms follow the SMILES beside them. *: point of attachment. Hydrocinnamoyl = O=C(CCc1ccccc1)*; Thr(ol) = C[C@@H](O)[C@H](N)CO; Piv = CC(C)(C)C(=O)*

System: GH-secretion
Assay: GH-secretion inhibiting test: depression of serum GH-levels in the rat (radio-immuno-assay)
Format: in vivo
Conditions: for ID50 in the GH-secretion inhibiting test after 1 hour / ID50 in the GH-secretion inhibiting test after 6 hours: male rats, s.c.; for ID50 in the GH-secretion inhibiting test after 1 hour: blood taken 1 hour after administration; for ID50 in the GH-secretion inhibiting test after 6 hours: blood taken 6 hours after administration; for s.c. dose, times less than somatostatine: relative to somatostatine
Method: This test is carried out employing male rats. The test-substance is administered at varying, logarithmically staggered doses employing at least 5 rats per dose. 1, 6 and 18 hours after the administration of the test substance blood is taken. The determination of the serum GH-level is effected by radio-immuno-assay. The compounds of formula I are active in this test when administered at a dosage in the range of from 0.01 to 50 μg/kg s.c.

Row | SMILES | ID50 in the GH-secretion inhibiting test after 1 hour [µg/kg] | ID50 in the GH-secretion inhibiting test after 6 hours [µg/kg] | s.c. dose, times less than somatostatine
1 | CCCCCCCC(=O)NCCCCCC(=O)N[C@H](Cc1ccccc1)C(=O)N[C@H]1CSSC[C@@H](C(=O)N[C@H](CO)[C@@H](C)O)NC(=O)[C@H]([C@@H](C)O)NC(=O)[C@H](CCCCN)NC(=O)[C@@H](Cc2c[nH]c3ccccc23)NC(=O)[C@H](Cc2ccccc2)NC1=O [Example 3] | 0.06 | 3.0 | about 15,000 times
2 | C[C@@H](O)[C@H](NC(=O)[C@H](CCCCN)NC(=O)[C@@H](Cc1c[nH]c2ccccc12)NC(=O)[C@H](Cc1ccccc1)NC(=O)[C@H](CSC(=O)C(C)(C)C)NC(=O)CCc1ccccc1)C(=O)N[C@@H](CSC(=O)C(C)(C)C)C(=O)N[C@H](CO)[C@@H](C)O [Example 19] (Hydrocinnamoyl-C(Piv)F[dW]KTC(Piv)[Thr(ol)]) | 0.27 | 0.7 | ~3,500 times
